# Earlier results as cited in PMC5522529, “Mechanisms of Paradoxical Activation of AMPK by the Kinase Inhibitors SU6656 and Sorafenib” (Cell Chemical Biology, 2017).
# System: LKB1 versus AMPK
# Design: method as in MRC Kinase Inhibitor Database
# Conditions: ref MRC Kinase Inhibitor Database; cited from earlier work
compound,measurement,value
CN[C@@H]1C[C@H]2O[C@@](C)([C@@H]1OC)n1c3ccccc3c3c4c(c5c6ccccc6n2c5c31)C(=O)NC4 [staurosporine],potency of LKB1 inhibition relative to AMPK inhibition,inhibit LKB1 with similar potency to AMPK
